Measured values taken from patent publication US20240197823A1, “CATIONIC ANTIMICROBIAL PEPTIDES AND USES THEREOF” (priority 2021, published 2024).
Some entries share one result that the patent states for a list of compounds.

Test system: human red blood cells
Experiment: RBC lysis assay
Type: cell-based
Settings: maximum test concentration of 32 μM

Substance: Ac-LKRVWKRVFKLLKRYWRQLKKPVR-NH2 [SAAP-148]
- percent RBC lysis: > 50%
